The text below walks through data of paper doi:10.1101/2025.11.03.686312.

By UniProt entry, the sequences of proteins in these tests, tags left out. Residues count along the entry.
UniProt Q9P0T7, residues 21-183: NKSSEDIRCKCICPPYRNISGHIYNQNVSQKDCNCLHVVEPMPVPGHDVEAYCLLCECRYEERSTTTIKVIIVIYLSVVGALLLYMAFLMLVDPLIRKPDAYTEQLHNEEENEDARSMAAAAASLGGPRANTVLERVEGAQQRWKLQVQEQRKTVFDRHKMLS
UniProt O75396: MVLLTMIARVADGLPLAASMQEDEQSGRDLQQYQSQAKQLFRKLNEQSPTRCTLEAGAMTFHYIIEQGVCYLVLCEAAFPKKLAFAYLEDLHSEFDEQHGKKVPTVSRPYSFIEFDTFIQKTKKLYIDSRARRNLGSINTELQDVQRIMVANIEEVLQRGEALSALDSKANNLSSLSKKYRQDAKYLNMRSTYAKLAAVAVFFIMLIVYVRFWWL

Common to all, as to test: affinity purification with mass spectrometry
In assay [1] the target is T1, ClC-5 I524K, stably expressed in RPTEC/TERT1 cells depleted of endogenous CLCN5 (human) (UniProt P51795).
T1 sequence: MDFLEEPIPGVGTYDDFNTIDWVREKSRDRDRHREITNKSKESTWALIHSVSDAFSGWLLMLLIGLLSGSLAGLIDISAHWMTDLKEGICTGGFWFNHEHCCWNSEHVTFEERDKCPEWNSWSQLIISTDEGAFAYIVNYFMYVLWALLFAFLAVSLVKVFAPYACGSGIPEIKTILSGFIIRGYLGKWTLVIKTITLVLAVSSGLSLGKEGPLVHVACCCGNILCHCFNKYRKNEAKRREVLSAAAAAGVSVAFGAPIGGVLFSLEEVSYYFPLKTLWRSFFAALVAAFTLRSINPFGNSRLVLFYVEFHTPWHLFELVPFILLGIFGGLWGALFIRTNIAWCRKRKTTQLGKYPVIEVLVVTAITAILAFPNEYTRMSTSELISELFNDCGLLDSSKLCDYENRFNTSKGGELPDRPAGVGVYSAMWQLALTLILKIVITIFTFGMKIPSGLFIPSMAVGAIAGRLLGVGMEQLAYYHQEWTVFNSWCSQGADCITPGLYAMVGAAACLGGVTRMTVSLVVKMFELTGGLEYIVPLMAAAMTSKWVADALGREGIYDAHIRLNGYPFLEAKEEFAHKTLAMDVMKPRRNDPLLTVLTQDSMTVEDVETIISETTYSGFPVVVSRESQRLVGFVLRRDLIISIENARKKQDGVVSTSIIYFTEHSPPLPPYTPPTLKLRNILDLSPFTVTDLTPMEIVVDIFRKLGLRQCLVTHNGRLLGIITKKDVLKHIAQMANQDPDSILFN

The target in assay [2] is T2, ClC-5 E527D, stably expressed in RPTEC/TERT1 cells depleted of endogenous CLCN5 (human) (UniProt P51795).
T2 sequence: T1 sequence with K524I, E527D

Assay [3] addresses T3, ClC-5 WT (Cl-/H+ antiporter ClC-5), stably expressed in RPTEC/TERT1 cells depleted of endogenous CLCN5 (human) (UniProt P51795).
T3 sequence: T1 sequence with K524I

Assay [4] concerns the target T4, ClC-5 V523Δ, stably expressed in RPTEC/TERT1 cells depleted of endogenous CLCN5 (human) (UniProt P51795).
T4 sequence: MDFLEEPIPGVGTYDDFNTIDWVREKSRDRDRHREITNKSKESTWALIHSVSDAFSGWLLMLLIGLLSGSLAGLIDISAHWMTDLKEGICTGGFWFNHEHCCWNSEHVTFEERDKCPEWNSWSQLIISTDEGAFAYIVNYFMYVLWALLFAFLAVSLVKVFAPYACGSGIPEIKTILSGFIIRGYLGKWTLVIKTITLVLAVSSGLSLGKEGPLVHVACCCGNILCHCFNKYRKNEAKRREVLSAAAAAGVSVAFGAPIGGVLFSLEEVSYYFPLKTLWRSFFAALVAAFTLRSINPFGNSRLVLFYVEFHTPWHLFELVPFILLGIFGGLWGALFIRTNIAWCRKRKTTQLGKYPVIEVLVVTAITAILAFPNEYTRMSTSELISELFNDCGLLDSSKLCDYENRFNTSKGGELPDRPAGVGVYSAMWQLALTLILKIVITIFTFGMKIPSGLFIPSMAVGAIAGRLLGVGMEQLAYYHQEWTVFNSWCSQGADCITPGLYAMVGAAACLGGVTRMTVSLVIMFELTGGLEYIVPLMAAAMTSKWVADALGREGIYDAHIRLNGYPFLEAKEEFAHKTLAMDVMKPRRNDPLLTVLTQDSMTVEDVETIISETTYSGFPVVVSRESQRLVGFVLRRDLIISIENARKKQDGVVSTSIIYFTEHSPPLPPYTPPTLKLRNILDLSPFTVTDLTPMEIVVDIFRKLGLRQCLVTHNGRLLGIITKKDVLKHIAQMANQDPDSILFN

Where a chain is given by its changes, count along the chain named. Numbers in names are those of the source. Results are given in words; binding and its absence hold for the method and conditions named. Binding seen in cells or lysates may run through a third protein. These calls come from enrichment with a bait or labelling near it, and not all partners need be listed. For part of these data: No binding means not detected with the bait.

On to “TMEM9 (proton-transporting V-type ATPase complex assembly regulator TMEM9), endogenous in RPTEC/TERT1 cells (from UniProt Q9P0T7 21-183)”, for which the binding entry in assay [1], in assay [2], in assay [3] and in assay [4] was “binds” throughout.

In the case of “SEC22B (vesicle-trafficking protein SEC22B, R-SNARE), endogenous in RPTEC/TERT1 cells (from UniProt O75396 1-215)”, the binding result in assay [1] is listed as “no binding”; in assay [2] it was “no binding”; in assay [3], “binds”; in assay [4], “no binding”.

B1: ClC-5 E527D, stably expressed in RPTEC/TERT1 cells depleted of endogenous CLCN5 (protein, UniProt P51795-1 1-746)
chain: T1 sequence with K524I, E527D
As for B1, the binding result in assay [2] is “binds”.
